Some of the results follow. The main result of the screen is listed elsewhere. These columns were measured beside it and carry no call. Compounds called inactive in the main read-out are mostly missing here.

This experiment in a line: inhibitors of insulin promoter-driven GFP, primary screen, imaging, TRM-6 cells (human fetal islet line), eGFP reporter, cell count (AID 1273;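 further: cells exposed to compound for 48 h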). The note with it: measured here: cell count, toxicity, at 2 µM, reporter expression induced with tamoxifen.
Regarding `Clc1ccc2c(N/N=C/c3cccnc3)ccnc2c1`, the normalized cell count came out at 140%.
Turning to `Cc1c(N2C(=O)c3cccc4cccc(c34)C2=O)c(=O)n(-c2ccccc2)n1C`, the normalized cell count was found to be 40%.
The same measure for `O=C(c1ccc(F)cc1)N1CCCCC(Sc2nnc3ccccn23)C1=O` (stereo not given): 108%.
The same measure for `O=C1NC(=O)/C(=C\c2ccsc2)N1`: 64.2%; for `Brc1ccc2ncnc(NCc3ccccc3)c2c1`: 104%; for `Cc1ccccc1C(=O)N1CCN(c2ccccn2)CC1`: 123%.
The same measure for `CCOC(=O)c1sc2nc3c(cc2c1N)COC(C)(C)C3`: 107%; for `O=C(Nc1ccc(Cl)cc1)Nc1ccc(N2CCOCC2)cc1`: 155%; for `CCC(=O)Nc1nonc1-c1nc2ccccc2n1Cc1ccccc1`: 103%.
With `CCS(=O)(=O)n1nc(-c2ccc(Cl)cc2)nc1SC`, the normalized cell count amounted to 222%.
The same measure for `CCc1c(O)cc2n(c1=O)-c1ccccc1C2(C)C`: 81.6%; for `O=C(c1ccccc1)c1ccccc1C(=O)N1CCCC1`: 134%.
The same measure for `CCc1cc2c(NCC3CCCO3)ncnc2s1` (stereo not given): 108%; for `CCSCc1nc2ccccn2c1Br`: 134%.
The same measure for `c1ccc(C(Cc2nc(-c3ccncc3)no2)c2ccccc2)cc1`: 135%; for `Cc1[nH]n2c(=O)c3c(nc2c1-c1ccccc1)CCC3`: 119%.
Compound `CCCCCC(=O)N/N=C(\C)c1ccc(Cl)cc1` yielded a normalized cell count of 0.42%.
Turning to `COc1cccc(Nc2c3c(nc4c(-c5ccccc5)c(C)nn24)CCC3)c1`, the normalized cell count turned out to be 138%.
Turning to `Cn1c(=O)cc(SCC(=O)N2CCN(c3ccccc3)CC2)c2ccccc21`, the normalized cell count is 105%.
As for `COc1ccc(C(=O)N(Cc2ccc(N(C)C)cc2)C2CCS(=O)(=O)C2)cc1` (stereo not given), the normalized cell count was found to be 69.7%.
For `NC(=O)[C@@H]1CCCCNc2c(I)cc([N+](=O)[O-])cc2C(=O)N[C@@H](CCC(=O)O)C(=O)N[C@@H](CO)C(=O)N1` the value was 119%.
As to `CCOc1ccc(-c2nc(C#N)c(N3CCN(CC)CC3)o2)cc1`, the normalized cell count stood at 156%.
For `CC(C)(CCl)C(=O)Nc1ccc(C(F)(F)F)cc1` the value was 126%; for `CCCCCOC(=O)Nc1nnc(CCCCC)s1`, 81%; for `c1ccc(N2CCN(c3nc4ccccc4[nH]3)CC2)nc1`, 97.9%.
For `COC(=O)c1cc(OC)c(OC)cc1NC(=O)CSc1nnnn1Cc1ccccc1` the value was 171%; for `CCN(CC)S(=O)(=O)c1cccc(-c2nnc(SCc3nc4ccccc4s3)o2)c1`, 95.4%; for `c1ccc2[nH]c(NC3=NCCC3)nc2c1`, 111%.
`Cc1ccc(/C=N/NC(=O)C2=NNC(c3ccccc3)(c3ccccc3)C2)c(O)c1`: the normalized cell count came to 75.6%.
For the compound `O=C(CCc1nnc(Cc2ccc3c(c2)OCO3)o1)NCc1nc2ccccc2s1`, the normalized cell count turned out to be 51.1%.
For `Cc1ccc(-n2[nH]c(C)c(/C=N/NC(=O)c3cccc([N+](=O)[O-])c3)c2=O)cc1C` the value was 166%.
For `Cc1ccccc1C(=O)NC1CCN(C(=O)N2CCOCC2)CC1` the value was 142%; for `CC1CN(c2nc(-c3ccccc3)nc3ccccc23)CC(C)O1` (stereo not given), 44.1%.
Regarding `Cc1nnc(OC(C)C)c2nn(-c3ccccc3F)c(C)c12`, the normalized cell count is 157%.
For `CC(C)(C)c1ccc(C(=O)Nc2cccc([N+](=O)[O-])c2)cc1` the value was 139%; for `Cc1noc(C)c1C(=O)NC(C)C1CCCO1` (stereo not given), 36.8%; for `Cn1c(C(=O)c2ccccc2[N+](=O)[O-])nc2ccccc21`, 14.2%.
Compound `Cc1nnc(SCC(=O)c2ccc(Br)cc2)s1` returned a normalized cell count of 142%.
For `N#CCSc1ccc(-c2nc3ccccc3[nH]2)cn1` the value was 88.2%.
With `COC(=O)Cn1c(CN2CCC(Cc3ccccc3)CC2)nc2c1c(=O)n(C)c(=O)n2C`, the normalized cell count was 67.3%.
For `O=C(NC1CCCCCC1)c1cccc(COCC(F)(F)F)c1` the value was 139%; for `CCCCSc1nnc(-c2ccc(C)cc2)c2ccccc12`, 131%.
The same measure for `CCOC(=O)N1CCN(C(=O)c2ccc(OC)c(S(=O)(=O)N3CCOCC3)c2)CC1`: 142%; for `Cc1cccc(N/N=C(\C#N)S(=O)(=O)C(C)(C)C)c1`: 83.5%.
For `Cc1ccc(N2CCN(S(=O)(=O)N3CCCCC3)CC2)cc1Cl` the value was 86.3%; for `CCCc1nc2ccccc2n1CC(O)COc1ccc(NC(C)=O)cc1` (stereo not given), 97.5%.
`O=C1Nc2ccccc2N(O)N1c1cc(-c2ccccc2)[nH]n1` showed a normalized cell count of 92.3%.
`Cn1cccc1/C=N/NC(=O)c1ccn[nH]1` gave a normalized cell count of 118%.
For `Cc1occc1C(=O)Nc1nn[nH]n1` the value was 16.9%; for `COc1ccc([N+](=O)[O-])cc1NC(=O)COC(C)=O`, 64%; for `CSc1cccc(NC(=O)COc2cccc3ccccc23)c1`, 48.3%.
For `COc1cccc(CCC(=O)O)c1OC` the value was 35.1%.
The same measure for `CCN1CCN(c2cc(C)c3cc(NC(=O)Cc4ccc(OC)c(OC)c4)ccc3n2)CC1`: 159%; for `Nc1nc(CN2CCCCCC2)nc(Nc2ccccc2)n1`: 40%; for `N#CCCN(C(=O)COC(=O)c1cccc(S(=O)(=O)Nc2ccc([N+](=O)[O-])cc2)c1)c1ccccc1`: 103%.
In the case of `CCc1ccc2c(c1)c(N=NC1=NC(=O)CS1)c(O)n2C`, the normalized cell count was 60.5%.
`CCCN(Cc1cc2cc(C)ccc2[nH]c1=O)S(C)(=O)=O` displayed a normalized cell count of 88.8%.
For `Cc1c(Cl)cccc1-n1c(SCC(=O)NCc2cccs2)nnc1-c1ccncc1` the value was 39%; for `COc1ccc(NC(=O)c2ccco2)cc1NC(=O)c1ccc(Br)o1`, 94.7%.
For `CCOc1nc(NC(=O)NS(=O)(=O)Oc2cccc(Cl)c2)nc(-c2ccccc2)n1` the value was 59.2%.
The same measure for `CCOC(=O)Nc1ccc2nc3n(c(=O)c2c1)CCCCC3`: 80.6%; for `Cc1ccc(O)c(-c2cc(-c3ccccc3C)[nH]n2)c1`: 118%.
Compound `COc1ccc(NC(=O)c2nc3nc(C)cc(C(F)F)n3n2)cc1OC` came in with a normalized cell count of 56.1%.
In turn, `CC(=O)Nc1ccc(NC(=O)c2ccc(CSc3ccccc3)o2)cc1` returned a normalized cell count of 151%.
The compound `Cc1c(Nc2cc(Cl)c3nonc3c2[N+](=O)[O-])c(=O)n(-c2ccccc2)n1C` displayed a normalized cell count of 0%.
The same measure for `Cn1c(=O)cc(SCC(=O)NCC2CCCO2)c2ccc(Cl)cc21` (stereo not given): 105%; for `Cc1cc2[nH]c(=O)c3ccccc3n2n1`: 97.9%; for `Nc1nc2c(c(=O)[nH]1)C(c1cccc3ccccc13)C1=C(N2)c2ccccc2C1=O` (stereo not given): 83.8%.
For `O=C(O)c1cc(-c2ccco2)nc2ccc(Br)cc12` the value was 154%.
The same measure for `CC1CCCC(C)N1/N=C/c1ccccc1C(=O)O` (stereo not given): 176%; for `COc1ccc2c(c1)-c1nc(/N=C/c3ccc(O)cc3)sc1CC2`: 144%.
`CCOC(=O)c1sc2nc(C)nc(Nc3ccc(OC)cc3)c2c1C` displayed a normalized cell count of 101%.
For `Cc1ccc(O)c(CC(C)C)n1` the value was 142%.
The same measure for `O=C(NNC(=O)c1ccc(F)cc1F)c1ccc2c(c1)OCO2`: 115%; for `CCCCn1c(N(CCOC(C)=O)C(C)=O)nc2ccccc21`: 34.6%; for `O=Cc1c(-c2ccc(F)cc2)nc2ccccn12`: 157%.
For `Cc1cccc(OCCNC(=S)NC(=O)c2cccnc2)c1` the value was 104%; for `Cc1ccc(C(C(=O)NCC2CCCO2)N(Cc2ccccc2)C(=O)c2ccc(-c3ccccc3)[nH]2)o1` (stereo not given), 199%; for `COc1ccc(C(=O)Nc2cccc(C(=O)NCc3ccco3)c2)cc1`, 105%.
Compound `CC(C)c1ccc(CN2CC(C(=O)Nc3ccccc3)CC2=O)cc1` (stereo not given) showed a normalized cell count of 37.2%.
The same measure for `Cc1cc(N=Nc2ccccc2)c(NCC(O)C(O)C(O)CO)cc1C` (stereo not given): 104%; for `O=c1c(C(c2ccccc2)c2c(O)sc3ccccc3c2=O)c(O)sc2ccccc12`: 85.5%; for `CCC(C)(NC(=O)CNC(C)=O)C(=O)NC1CCCCC1` (stereo not given): 37.6%.
On to `CC(=O)Nc1ccc(S(=O)(=O)Nc2nccc(/C=C/c3ccc(Cl)cc3)n2)cc1`, for which the normalized cell count was 131%.
For `Cc1onc(-c2c(F)cccc2Cl)c1C(=O)OCn1nnc2ccccc2c1=O` the value was 99.6%; for `COC(=O)c1ccccc1NC(=O)C1CC(=O)N(c2ccc(F)cc2)C1` (stereo not given), 66.7%; for `CCOc1ccc(C(CC(=O)O)NC(=O)COc2ccccc2)cc1OC` (stereo not given), 160%.
The same measure for `COc1ccc(-c2nc(C#N)c(N3CCC(C(N)=O)CC3)o2)cc1OC`: 95.6%; for `CC(C)CC(c1nnnn1CCc1ccccc1)N1CCC(C(N)=O)CC1` (stereo not given): 41.1%.
For `Cc1cccc(NC(=S)NC(=O)C(c2ccccc2)c2ccccc2)n1` the value was 29.4%; for `N#C/C(=C/c1ccc(N2CCOCC2)c([N+](=O)[O-])c1)C(N)=O`, 88.8%.
Take `COc1ccc(OC)c(N/C(C)=C/C(=O)c2ccc(C)o2)c1`: the normalized cell count turned out to be 84.8%.
For `Cc1cc(=O)[nH]c2c1c(C)nn2-c1ccccc1` the value was 79.8%.
`c1ccc(CNc2nc(-c3cccs3)nc3ccccc23)nc1` yielded a normalized cell count of 113%.
The compound `Cc1cccc(Nc2nc(N)nc(CN3CCC(C)CC3)n2)c1C` registered a normalized cell count of 15.9%.
For `CCCCCn1nc(C)c(/C=N\NC(=O)c2cc(C)oc2C)c1C` the value was 134%; for `O=C(COC(=O)c1cnccn1)c1ccc2c(c1)CCCC2`, 126%.
For `Cc1ccc(S(=O)(=O)N2CCCC(C(=O)Nc3ccc(NC(=O)c4ccccn4)cc3)C2)cc1` (stereo not given), the normalized cell count came out at 111%.
The same measure for `CCCn1nnc(NC(=O)COc2ccc(C3CCCCC3)cc2)n1`: 14.3%; for `CCN(CC)c1nc2ccccc2[nH]1`: 234%; for `COc1ccc(-c2c(C#N)c(C)nc3c2C(=O)c2ccccc2-3)cc1`: 80%.
The same measure for `O=C(NCCCN1CCN(c2ccccc2F)CC1)Nc1ccccc1[N+](=O)[O-]`: 94.6%; for `CCOc1ccc(/C=N/Nc2ccc(C(F)(F)F)cc2[N+](=O)[O-])cc1O`: 123%.
For `COc1ccc(C(=O)C(CN2CCOCC2)c2ccccc2)cc1F` (stereo not given) the value was 50.3%; for `Cc1nn(C)c(C)c1NC(=O)c1ccnn1C`, 67.6%; for `Cn1nccc1C(=O)N1CCc2ccccc21`, 135%.
`CC(=O)N(c1ccc(Cl)cc1)c1c[nH]c2ccccc12` returned a normalized cell count of 162%.
For `CCOP(=O)(C1=C(O)C(=O)C(C(C)(C)C)=CC1=O)c1ccccc1` (stereo not given) the value was 103%.
Compound `COc1oc(-c2ccc(Cl)cc2)nc1C(F)(F)F` yielded a normalized cell count of 103%.
For the compound `CCCC(=O)Nc1nnc(SCC)s1`, the normalized cell count is 61.5%.
The same measure for `Cn1cnnc1SCCn1c(N2CCCCC2)nc2c1c(=O)[nH]c(=O)n2C`: 93.8%; for `CC1(C)OC(=O)C(=CNn2cnc3ccccc3c2=O)C(=O)O1`: 78.5%; for `Cc1c(CNC(=O)c2cnn3c2NC(c2ccccc2)CC3C(F)(F)F)cnn1C` (stereo not given): 79.5%.
In turn, `Cc1ccc(C(=O)c2cc3c(cc2N)OCCO3)cc1` yielded a normalized cell count of 99.7%.
The same measure for `Cc1cccc(-n2c(=O)[nH]c3c(C(N)=O)nc(CC(C)C)nc32)c1`: 51.7%.

These data come from PubChem BioAssay AID1273 (Columbia University Molecular Screening Center, 2008).
